Test results taken from article doi:10.1101/749176.
Results are given in words; binding and its absence hold for the method and conditions named. In cells and extracts the contact can be indirect. Some binding calls cover weakened binding; strength is not graded here. Sequences can lack the tags named with a protein.

T1: mKO-PBP1a (Escherichia coli) (UniProt P02918)
T1 sequence: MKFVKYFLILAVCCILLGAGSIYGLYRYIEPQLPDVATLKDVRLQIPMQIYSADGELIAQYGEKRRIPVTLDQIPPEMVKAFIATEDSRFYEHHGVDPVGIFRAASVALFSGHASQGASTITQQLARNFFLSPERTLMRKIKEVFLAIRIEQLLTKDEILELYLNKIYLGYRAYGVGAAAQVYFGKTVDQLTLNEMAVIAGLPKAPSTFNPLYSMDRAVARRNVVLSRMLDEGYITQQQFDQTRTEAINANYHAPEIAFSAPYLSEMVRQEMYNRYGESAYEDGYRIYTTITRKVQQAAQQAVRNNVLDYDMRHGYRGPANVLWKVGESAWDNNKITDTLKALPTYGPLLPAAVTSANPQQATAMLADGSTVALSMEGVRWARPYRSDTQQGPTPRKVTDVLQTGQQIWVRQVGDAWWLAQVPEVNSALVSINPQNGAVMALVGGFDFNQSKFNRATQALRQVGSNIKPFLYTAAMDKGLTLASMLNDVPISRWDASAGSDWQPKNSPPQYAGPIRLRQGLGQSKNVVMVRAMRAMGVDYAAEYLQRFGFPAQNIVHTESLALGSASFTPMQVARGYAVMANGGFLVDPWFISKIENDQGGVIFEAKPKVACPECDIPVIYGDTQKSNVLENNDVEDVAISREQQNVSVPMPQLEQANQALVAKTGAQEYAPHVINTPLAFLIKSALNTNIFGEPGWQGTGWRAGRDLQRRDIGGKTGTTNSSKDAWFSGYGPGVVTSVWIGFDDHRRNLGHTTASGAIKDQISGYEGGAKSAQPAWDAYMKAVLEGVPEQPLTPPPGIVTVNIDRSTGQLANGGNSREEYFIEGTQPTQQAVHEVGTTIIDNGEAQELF

B1: mCh-ZapA^I83E (dimeric ZapA mutant fused to mCh) (protein, UniProt P0ADS2 1-109)
chain: MSAQPVDIQIFGRSLRVNCPPDQRDALNQAADDLNQRLQDLKERTRVTNTEQLVFIAALNISYELAQEKAKTRDYAASMEQRERMLQQTIEQALLEQGRITEKTNQNFE
B2: mCh-ZapA (wild type ZapA fused to mCh) (protein, UniProt P0ADS2 1-109)
chain: MSAQPVDIQIFGRSLRVNCPPDQRDALNQAADDLNQRLQDLKERTRVTNTEQLVFIAALNISYELAQEKAKTRDYAASMEQRIRMLQQTIEQALLEQGRITEKTNQNFE
B3: mCh-PBP1b (protein, UniProt P02919 1-844)
chain: MAGNDREPIGRKGKPTRPVKQKVSRRRYEDDDDYDDYDDYEDEEPMPRKGKGKGKGRKPRGKRGWLWLLLKLAIVFAVLIAIYGVYLDQKIRSRIDGKVWQLPAAVYGRMVNLEPDMTISKNEMVKLLEATQYRQVSKMTRPGEFTVQANSIEMIRRPFDFPDSKEGQVRARLTFDGDHLATIVNMENNRQFGFFRLDPRLITMISSPNGEQRLFVPRSGFPDLLVDTLLATEDRHFYEHDGISLYSIGRAVLANLTAGRTVQGASTLTQQLVKNLFLSSERSYWRKANEAYMALIMDARYSKDRILELYMNEVYLGQSGDNEIRGFPLASLYYFGRPVEELSLDQQALLVGMVKGASIYNPWRNPKLALERRNLVLRLLQQQQIIDQELYDMLSARPLGVQPRGGVISPQPAFMQLVRQELQAKLGDKVKDLSGVKIFTTFDSVAQDAAEKAAVEGIPALKKQRKLSDLETAIVVVDRFSGEVRAMVGGSEPQFAGYNRAMQARRSIGSLAKPATYLTALSQPKIYRLNTWIADAPIALRQPNGQVWSPQNDDRRYSESGRVMLVDALTRSMNVPTVNLGMALGLPAVTETWIKLGVPKDQLHPVPAMLLGALNLTPIEVAQAFQTIASGGNRAPLSALRSVIAEDGKVLYQSFPQAERAVPAQAAYLTLWTMQQVVQRGTGRQLGAKYPNLHLAGKTGTTNNNVDTWFAGIDGSTVTITWVGRDNNQPTKLYGASGAMSIYQRYLANQTPTPLNLVPPEDIADMGVDYDGNFVCSGGMRILPVWTSDPQSLCQQSEMQQQPSGNPFDQSSQPQQQPQQQPAQQEQKDSDGVAGWIKDMFGSN

Tests used:
[1] = biological target: T1, mKO-PBP1a (Escherichia coli); test: FRET or BRET
[2] = biological target: mKO-FtsZ (Escherichia coli) (UniProt P0A9A6); test: FRET or BRET

Binder	binding [1]	binding [2]
B1	no binding (tested: EfA less than 1.7 %)	binds
B2	no binding (tested: EfA less than 1.7 %)	
B3	no binding (tested: EfA less than 1.7 %)	
